Measured values as given in publication PMC9788671.
These are yes or no findings as the source states them, for the method shown. In cells and extracts the contact can be indirect. Here binding means that the protein was enriched with, or labelled near, the bait; the list need not be complete.

Sequences of proteins named here, by UniProt entry; tags and fusion partners are left off.
UniProt Q9NZV8: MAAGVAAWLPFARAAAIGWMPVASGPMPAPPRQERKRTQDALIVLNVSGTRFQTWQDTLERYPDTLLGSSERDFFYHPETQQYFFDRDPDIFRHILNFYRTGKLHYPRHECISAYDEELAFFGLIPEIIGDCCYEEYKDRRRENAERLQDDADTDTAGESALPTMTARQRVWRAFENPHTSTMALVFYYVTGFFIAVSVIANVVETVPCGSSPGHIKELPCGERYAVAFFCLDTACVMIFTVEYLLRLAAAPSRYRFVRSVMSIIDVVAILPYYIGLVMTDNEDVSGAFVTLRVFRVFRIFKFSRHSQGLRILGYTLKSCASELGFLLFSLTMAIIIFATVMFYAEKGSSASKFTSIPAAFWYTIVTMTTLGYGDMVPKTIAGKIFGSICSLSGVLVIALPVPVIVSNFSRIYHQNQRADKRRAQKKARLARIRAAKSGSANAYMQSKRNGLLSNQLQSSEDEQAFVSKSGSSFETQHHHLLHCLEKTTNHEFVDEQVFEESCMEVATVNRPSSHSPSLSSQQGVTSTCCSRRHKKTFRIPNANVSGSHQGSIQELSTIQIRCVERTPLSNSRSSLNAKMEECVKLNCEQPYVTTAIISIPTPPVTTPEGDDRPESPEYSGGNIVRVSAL

Columns and labels:
TAP-Kv4.2 (human) [1] = target: TAP-Kv4.2 (human) (UniProt Q9NZV8); assay: affinity purification with mass spectrometry; TAP-Kv4.2 expressed by lentivirus in rat hippocampal neurons, harvested at DIV14; weak lysis buffer of the kit (0.1% NP-40); streptavidin resin, then calmodulin resin; gel cut into high and low molecular weight fragments; no MS of the control sample
TAP-Kv4.2 (human) [2] = target: TAP-Kv4.2 (human) (UniProt Q9NZV8); assay: affinity purification with mass spectrometry; TAP-Kv4.2 expressed by lentivirus in rat hippocampal neurons, harvested at DIV14; strong lysis buffer (1% Triton X-100, 0.5% deoxycholate in PBS, pH 7.4); streptavidin resin, then calmodulin resin; gel cut into high and low molecular weight fragments; no MS of the control sample

B1: Brsk1 (protein, UniProt B2DD29 1-778)
chain: MSSGSKEGGGGSPAYHLPHPHPHPPQHAQYVGPYRLEKTLGKGQTGLVKLGVHCITGQKVAVKIVNREKLSESVLMKVEREIAILKLIEHPHVLKLHDVYENKKYLYLVLEHVSGGELFDYLVKKGRLTPKEARKFFRQIVSALDFCHSYSICHRDLKPENLLLDEKNNIRIADFGMASLQVGDSLLETSCGSPHYACPEVIKGEKYDGRRADMWSCGVILFALLVGALPFDDDNLRQLLEKVKRGVFHMPHFIPPDCQSLLRGMIEVEPEKRLSLEQIQKHPWYLGGKHEPDPCLEPAPGRRVAMRSLPSNGELDPDVLESMASLGCFRDRERLHRELRSEEENQEKMIYYLLLDRKERYPSCEDQDLPPRNDVDPPRKRVDSPMLSRHGKRRPERKSMEVLSITDAGSGGSPVPTRRALEMAQHSQRSRSVSGASTGLSSSPLSSPRSPVFSFSPEPGVGDEARGGGSPTSKTQTLPSRGPRGGGAGEQPPPPSARSTPLPGPPGSPRSSGGTPLHSPLHTPRASPTGTPGTTPPPSPGGGVGGAAWRSRLNSIRNSFLGSPRFHRRKMQVPTAEEMSSLTPESSPELAKRSWFGNFISLDKEEQIFLVLKDKPLSSIKADIVHAFLSIPSLSHSVLSQTSFRAEYKASGGPSVFQKPVRFQVDISSSEGPEPSPRRDGSSGGGIYSVTFTLISGPSRRFKRVVETIQAQLLSTHDQPSVQALADEKNGAQTRPAGTPPRSLQPPPGRPDPDLSSSPRRGPSKDKKLLATNGTPLP
TAP-Kv4.2 (human) [1]
  binding: binds
TAP-Kv4.2 (human) [2]
  binding: binds

B2: Mccc1 (protein, UniProt Q5I0C3 39-715)
chain: TTPGGSITKVLIANRGEIACRVIRTARKMGVQSVAVYSEADRNSMHVDMADEAYSIGPAPSQQSYLAMEKIIQVAKSSAAQAIHPGYGFLSENMEFAEFCKQEGIIFIGPPSTAIRDMGIKSTSKSIMAAAGVPVVEGYHGNDQSDECLKEHAGKIGYPVMIKAIRGGGGKGMRIIRSEKEFQEQLESARREAKKSFNDDAMLIEKFVDTPRHVEVQVFGDHHGNAVYLFERDCSVQRRHQKIIEEAPAPGIDPEVRRRLGEAAVRAAKAVNYVGAGTVEFIMDSKHNFYFMEMNTRLQVEHPVTEMITGTDLVEWQLRIAAGEKIPLSQEEIPLQGHAFEARIYAEDPDNNFMPGAGPLVHLSTPPPDMSTRIETGVRQGDEVSVHYDPMIAKLVVWASDRQSALSKLRYSLHQYNIVGLRTNVDFLLRLSGHSEFEAGNVHTDFIPQHHKDLLPTHSTIAKESVCQAALGLILKEKEMTSAFKLHTQDQFSPFSFSSGRRLNISYTRNMTLRSGKNDIIIAVTYNRDGSYDMQIENKLFRVLGDLSNEDGYTYLKSSVNGVASKSKFILLDNTIYLFSMEGSIEVGIPVPKYLSPVSAEGTQGGTIAPMTGTIEKVFVKAGDRVKAGDALMVMIAMKMEHTIKAPKDGRIKKVFFSEGAQANRHAPLVEFEEEEV
TAP-Kv4.2 (human) [1]
  binding: binds
TAP-Kv4.2 (human) [2]
  binding: binds

B3: Nckap1 (protein, UniProt P55161 1-1128)
chain: MSRSVLQPSQQKLAEKLTILNDRGVGMLTRLYNIKKACGDPKAKPSYLIDKNLESAVKFIVRKFPAVETRNNNQQLAQLQKEKSEILKNLALYYFTFVDVMEFKDHVCDLLNTIDVCQVFFDITVNFDLTKNYLDLTVTYTTLMILLSRIEERKAIIGLYNYAHEMTHGASDREYPRLGQMIVDYEHPLKKMMEEFVPHSKSLSDALISLQMVYPRRNLSADQWRNAQLLSLISAPSTMLNPAQSDTMPCEYLSLDAMEKWIIFGFILCHGMLNTEATALNLWKLALQSSSCLSLFRDEVFHIHKAAEDLFVNIRGYNKRINDIRECKEAAVSHAGSMHRERRKFLRSALKELATVLSDQPGLLGPKALFVFMALSFARDEIIWLLRHADNMPKKSADDFIDKHIAELIFYMEELRAHVRKYGPVMQRYYVQYLSGFDAVVLNELVQNLSVCPEDESIIMSSFVNTMTSLSVKQVEDGEVFDFRGMRLDWFRLQAYTSVSKASLSLADHRELGKMMNTIIFHTKMVDSLVEMLVETSDLSIFCFYSRAFEKMFQQCLELPSQSRYSIAFPLLCTHFMSCTHELCPEERHHIGDRSLSLCNMFLDEMAKQARNLITDICTEQCTLSDQLLPKHCAKTISQAVNKKSKKQTGKKGEPEREKPGVESMRKNRLVVTNLDKLHTALSELCFSINYVPNMAVWEHTFTPREYLTSHLEIRFTKSIVGMTMYNQATQEIAKPSELLTSVREYMTVLQSIENYVQIDITRVFNNVLLQQTQHLDSHGEPTITSLYTNWYLETLLRQVSNGHIAYFPAMKAFVNLPTENELTFNAEEYSDISEMRSLSELLGPYGMKFLSESLMWHISSQVAELKKLVVENVDVLTQMRTSFDKPDQMAALFKRLSSVDSVLKRMTIIGVILSFRSLAQEALRDVLSYHIPFLVSSIEDFKDHIPRETDMKVAMNVYELSSAAGLPCEIDPALVVALSSQKSENISPEEEYKIACLLMVFVAVSLPTLASNVMSQYSPAIEGHCNNIHCLAKAINQIAAALFTIHKGSIEDRLKEFLALASSSLLKIGQETDKTTTRNRESVYLLLDMIVQESPFLTMDLLESCFPYVLLRNAYHAVYKQSVTSSA
TAP-Kv4.2 (human) [1]
  binding: binds
TAP-Kv4.2 (human) [2]
  binding: binds

B4: Hspa4 (protein, UniProt O88600 1-840)
chain: MSVVGIDLGFQSCYVAVARAGGIETIANEYSDRCTPACVSFGPKNRSVGAAAKSQVISNAKNTVQGFKRFHGRAFSDPFVEAEKSNLAYDIVQLPTGLTGIKVTYMEEERNFTTEQVTAMLLSKLKETAESVLKKPVVDCVVSVPSFYTDAERRSVMDATQIAGLNCLRLMNETTAVALAYGIYKQDLPALEEKPRNVVFVDMGHSAYQVSVCAFNRGKLKVLATAFDTTLGGRKFDEVLVNHFCEEFGKKYKLDIKSKVRALLRLSQECEKLKKLMSANASDLPLSIECFMNDIDVSGTMNRGKFLEMCDDLLARVEPPLRSILDQSKLKKEDIYAVEIVGGATRIPAVKEKISKFFGKELSTTLNADEAVTRGCALQCAILSPAFKVREFSITDVVPYPISLRWNSPAEEGSSDCEVFPKNHAAPFSKVLTFYRKEPFTLEAYYSSPQDLPYPDPAIAQFSVQKVTPQSDGSSSKVKVKVRVNVHGIFSVSSAALVEVHKSEESEEPMETDQNAKEEEKMQVDQEEPHTEEQQPQTPAENKAESEEMETSQAGSKDKKMDQPPQAKKAKVKTSTVDLPIESQLLWQLDREMLGLYTENEGKMIMQDKLEKERNDAKNAVEEYVYEMRDKLSGEYEKFVSEDDRNNFTLKLEDTENWLYEDGEDQPKQVYVDKLAELRTLGQPIKTRFQESEERPKLFEELGKQIQQYMKVISSFKNKEDQYEHLDAADMTKVEKSTNEAMEWMNSKLNLQNKQSLTADPVVKTKEIEAKIKELTNICSPIISKPKPKVEPPKEEPKHAEQNGPVDGQGDNPGTQAAEHGADTAVPSDGDKKLPEMDID
TAP-Kv4.2 (human) [1]
  binding: binds
TAP-Kv4.2 (human) [2]
  binding: binds

B5: Map6 (protein, UniProt Q63560 1-952)
chain: MAWPCITRACCIARFWNQLDKADIAVPLVFTKYSEATEHPGAPPQPPAPPQPGLAPPSRAVAIETQPAQGESDAVARATGPAPGPSGDRETAAAPGRSGLGLGAASGSTSGSGPADSVMRQDYRAWKVQRPEPSCRPRSEYQPSDAPFERETQYQKDFRAWPLPRRGDHPWIPKPVQIPATSQPSPPVLGMPKRRPQSQERGPIQLSADARDPEGAGGAGVPAAGKASGADQRDTRRKAGPAWMVTRTEGHEEKPLPPAQSQTQEGGPAAGKASGADQRDTRRKAGPAWMVTRTEGHEEKPLPPAQSQTQEGGPAAGKASGADQRDTRRKAGPAWMVTRTEGHEETPLPPAQSQTQEGGPAAGKASGADQRDTRRKAGPAWMVTRTEGHEETPLPPAQSQTQEGGPAAGKASGADERDTRRKAGPAWMVRRSEGHEQTTAAHAQGTGPEGGKGRAVADALNRQIREEVTSTVSSSYRNEFRAWTDIKPVKPIKAKPQYKPPDDKMVHETSYSAQFKGEASKPTTADNKVVDRRRIRSLYSEPFKESPKVEKPSVQSSKPKKTSTSQKPLRKAKDKQVASGQAAKKKTTESPSATKPDDKEQSKEMNNKLAEAKESRVKPTSDKNQGPVAKEPHKDQGPVAPGLPKGQGPAVQEPLKDQGPMVPGLPKDQAPVVPGSLKGQSPTAPGPPKDQGAVLLGPMKDLGPVAPASVKDQDHMASELLKNKDSVPLAPAKAQSPLLPEPLKNQSPVVPARAKDQSFPAPAPTPLKDPGPVIPEPEKDGAPMVPERRKDQNASIMASLKNEAPVASESVKNQGLGGPEPAKDTGTDLKGHGSVFVAPVKSQGPVVPEPTKGQDPIIPALAKDQGPILPEPPKNQGPPVVLGPIKNQDPVIPVPLKGQDPVVPAPTKDPGPTAPDPLKSQGPRGPQLPTVSPSPPVMIPTVPHAEYIEGSP
TAP-Kv4.2 (human) [1]
  binding: binds
TAP-Kv4.2 (human) [2]
  binding: binds

B6: Srcin1 (protein, UniProt Q9QXY2 1-1197)
chain: MQPWQCLRRFALAWWERTAEGRARSPREEVGPRDPGGRGEPDPERSSPPMLSADDAEYPREYRTLGGGGSGGSGGRRFSNVGLVHTSERRHTVIAAQSLEALSGLQKADADRKRDAFMDHLKSKYPQHALALRGQQDRMREQQPNYWSFKTRSSRHTQGAQPGLADQAAKLSYASAESLETMSEAELPLGFSRMNRFRQSLPLSRSASQTKLRSPGVLFLQFGEETRRVHITHEVSSLDTLHALIAHMFPQKLTMGMLKSPNTAILIKDEARNVFYELEDVRDIQDRSIIKIYRKEPLYAAFPGSHLTNGDLRREMVYASRESSPTRRLNNLSPASHLASSSPPPGLPSGLPSGLPSGSPSRSRLSYAGGRPPSYAGSPVHHAAERLGGAPTSQGVSPSPSAILERRDVKPDEDLAGKAGGMVLVKGEGLYADPYGLLHEGRLSLAAAAGDPFAYPGAGGLYKRGSVRSLSTYSAAALQSDLEDSLYKAGAGGPLYGDGYGFRLPPSSPQKLADVSAPSGGPPPPHSPYSGPPSRGSPVRQSFRKDSGSSSVFAESPGGKARSTGASTAGAPPSELFPGPGERSLVGFGPPVPAKDTETRERMEAMEKQIASLTGLVQSALLRGSEPETPSEKIEGSNGAATPSAPVCGSGSRSSGATPVSGPPPPAVSSTPAGQPTAVSRLQMQMHLRGLQNSASDLRGQLQQLRKLQLQNQESVRALLKRTEAELSMRVSEAARRQEDPLQRQRTLVEEERLRYLNDEELITQQLNDLEKSVEKIQRDVAHNHRLVPGPELEEKALVLKQLGETLTELKAHFPGLQSKMRVVLRVEVEAVKFLKEEPQRLDGLLKRCRVVTDTLAQIRRQVDEGVWPPPNNLLNQSPKKVAAETDFSKGLDFEIPPPSPPLNLHELSGPAEGTPLTPKSGNPTKGLDAPSKRNMDKAVSVEAAERDWEEKRAALTQYSAKDINRLLEETQAELLKAIPDLDCASKTHPGPTPTPDHKPPKAPHGQKAAPRTEPSGRRGSDELTVPRYRTEKPSKSPPPPPPRRSFPSSHGLTTTRTGEVVVTSKKDSVFIKKAESEELEIQKPQVKLRRAVSEVVRPASTPPIMASAIKDEDDEERIIAELESGGGSVPPMKVVTPGASRLKAAQGPAGSPDKGKHGKQRTEYMRIQAQQQVRVGYQAPRPLEGCTPRLCYMPLS
TAP-Kv4.2 (human) [1]
  binding: binds
TAP-Kv4.2 (human) [2]
  binding: binds

B7: Vdac3 (protein, UniProt Q9R1Z0 1-283)
chain: MCSTPTYCDLGKAAKDVFNKGYGFGMVKIDLKTKSCSGVEFSTSGHAYTDTGKASGNLETKYKVCNYGLIFTQKWNTDNTLGTEISWENKLAEGLKLTVDTIFVPNTGKKSGKLKASYRRDCFSVGSKVDIDFSGPTIYGWAVLAFEGWLAGYQMSFDTAKSKLCQNNFALGYKAEDFQLHTHVNDGTEFGGSIYQRVNEKIETSINLAWTAGSNNTRFGIAAKYRLDCRTSLSAKVNNASLIGLGYTQSLRPGVKLTLSALVDGKNFNAGGHKVGLGFELEA
TAP-Kv4.2 (human) [2]
  binding: binds
